# Reference: patent publication US10087172B2, “Compounds and their methods of use” (AGIOS PHARMACEUTICALS, INC, priority 2012, dated 2018)
# Protein sequences, listed by entry. Tags and fused reporters are not part of them. Residues count along the entry.
# UniProt O94925, 55-598 isoform 3 limits assumed: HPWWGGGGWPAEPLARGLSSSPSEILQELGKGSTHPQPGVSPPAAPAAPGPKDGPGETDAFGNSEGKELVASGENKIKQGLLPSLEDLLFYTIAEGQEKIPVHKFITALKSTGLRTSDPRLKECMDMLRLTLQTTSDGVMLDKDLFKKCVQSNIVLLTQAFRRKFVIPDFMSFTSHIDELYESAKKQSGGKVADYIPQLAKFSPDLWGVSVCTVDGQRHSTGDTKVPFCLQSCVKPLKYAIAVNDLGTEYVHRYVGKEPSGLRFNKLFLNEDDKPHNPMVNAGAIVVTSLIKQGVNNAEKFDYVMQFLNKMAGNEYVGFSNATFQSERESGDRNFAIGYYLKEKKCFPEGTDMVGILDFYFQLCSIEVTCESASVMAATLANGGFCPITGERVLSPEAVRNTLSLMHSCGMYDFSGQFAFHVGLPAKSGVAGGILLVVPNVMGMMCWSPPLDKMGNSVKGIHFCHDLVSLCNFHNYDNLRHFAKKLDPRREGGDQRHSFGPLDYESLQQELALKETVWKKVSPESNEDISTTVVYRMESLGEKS
# The structures given here were assigned with low confidence; some may be wrong.
# Molecular target: glutaminase (GAC) (Homo sapiens, UniProt O94925)
# Assay: Glutaminase (GAC) coupled endpoint enzymatic assay (glutamate dehydrogenase/diaphorase/resazurin, Ex544/Em590)
# Conditions: inhibition of glutaminase, tested in an assay of Example A or Example B; class symbols A-E
smiles,measurement,value
O=C(Cc1cccc(C(F)(F)F)c1)Nc1nnc([C@H]2CCC[C@H](c3nnc(NC(=O)Cc4cccc(C(F)(F)F)c4)s3)C2)s1,IC50,500 to 1000 nM
